Reference: patent US7026466B1, “Serotonin-gated anion channel” (Massachusetts Institute of Technology, priority 1999, dated 2006)

Chains of the proteins cited; added tags and fusions are not shown. Lines headed by an entry give the natural chain unless they say otherwise; changes in a name come on top.
UniProt Q9GQ00: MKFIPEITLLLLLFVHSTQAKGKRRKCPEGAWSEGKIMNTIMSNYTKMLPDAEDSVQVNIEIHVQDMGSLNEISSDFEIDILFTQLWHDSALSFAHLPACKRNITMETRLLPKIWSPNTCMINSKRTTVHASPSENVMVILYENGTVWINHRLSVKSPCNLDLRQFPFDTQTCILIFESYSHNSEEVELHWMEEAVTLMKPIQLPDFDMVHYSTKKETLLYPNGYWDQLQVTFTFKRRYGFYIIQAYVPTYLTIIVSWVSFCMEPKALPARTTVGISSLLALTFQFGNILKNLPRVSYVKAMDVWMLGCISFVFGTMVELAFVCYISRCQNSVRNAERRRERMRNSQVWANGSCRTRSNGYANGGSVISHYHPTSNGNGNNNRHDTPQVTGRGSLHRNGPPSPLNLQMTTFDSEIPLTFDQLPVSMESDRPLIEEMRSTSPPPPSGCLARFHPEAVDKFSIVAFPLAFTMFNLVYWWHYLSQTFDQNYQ

Target: MOD-1 channel (Caenorhabditis elegans, UniProt Q9GQ00)
Test: Voltage clamp of MOD-1 heterologously expressed in Xenopus oocytes or HEK cells
Format: cell-based, C. elegans

CN1CCN2c3ccccc3Cc3ccccc3C2C1 (stereo not shown) [mianserin]
Ki: ~19 µM
